This data set concerns the target DnaA (Escherichia coli (gene amplified from MG1655)) (UniProt P03004). Put plainly: EMSA. The conditions noted are these: 2 mM ATP, complex at as low as 0.16 pmol DnaA, EMSA: DnaA with 5'-FAM-oriC, 5 min at 20 C, 5% native PAGE, recombinant protein, protein details: 6xHis (pET22b), label: 5'-FAM (both primers printed with 5'FAM), probe letters rebuilt from the primers and the genome.

Sequences of proteins named here, by UniProt entry; tags and fusion partners are left off. A change or cut given only in a name is not applied to a line headed by its entry.
UniProt P03004: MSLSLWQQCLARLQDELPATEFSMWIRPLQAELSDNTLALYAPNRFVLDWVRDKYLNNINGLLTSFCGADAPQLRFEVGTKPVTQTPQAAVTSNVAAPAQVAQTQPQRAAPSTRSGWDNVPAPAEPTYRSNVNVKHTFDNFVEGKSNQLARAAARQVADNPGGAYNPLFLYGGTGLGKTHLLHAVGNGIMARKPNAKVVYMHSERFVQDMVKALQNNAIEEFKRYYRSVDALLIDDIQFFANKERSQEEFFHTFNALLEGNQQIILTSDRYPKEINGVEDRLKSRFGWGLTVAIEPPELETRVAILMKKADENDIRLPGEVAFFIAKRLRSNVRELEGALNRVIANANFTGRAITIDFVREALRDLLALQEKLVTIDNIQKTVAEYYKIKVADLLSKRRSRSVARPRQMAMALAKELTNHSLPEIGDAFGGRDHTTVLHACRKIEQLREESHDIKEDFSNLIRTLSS

For at least one entry, the source does not settle the construct or the ends of the probe.

With “CCCGGGCCGTGGATTCTACTCAACTTTGTCGGCTTGAGAAAGACCCGGGATCCTGGGTATTAAAAAGAAGATCTATTTATTTAGAGATCTGTTCTATTGTGATCTCTTATTAGGATCGCACTGCCCTGTGGATAACAAGGATCCGGCTTTTAAGATCAACAACCTGGAAAGGATCATTAACTGTGAATGATCGGTGATCCTGGACCGTATAAGCTGGGATCAGAATGAGGGGTTATACACAACTCAAAAACTGAACAACCGTTGTTCCTTGGATAACTACCGGTTGATCCAAGCTTCCTGACAGAGTTATCCACAGTAGATCGCACGATCTGTATACTTATTTGAGTAAATTAATCCACGATCCCAGCCATTCTTCTGCCGGATCTTCCGGAATGTCGTGATCAAGAATGTTGATCTTCAGTGTTTCGCCTGTCTGTTTTGCACCGGAATCTTTGAGTTCTGCCTCGAG (double strand) [5'-FAM-oriC fragment]”, the binding result is reported as “binds”.
